This test has as its target C5aR1 on PMNs (UniProt P21730). Nature of the test: flow cytometry on cells; 10 ng Cy5-labeled human C5a on PMNs (resting or stimulated with 10 ng/mL TNF-α for 12 h), 4 °C, 0.5 h; PMNs preincubated with C5aR1-antibody, C5aR2-antibody, Cp1 or combinations; only the binder purified. (In general: A flow cytometer gives signals particle by particle.)

By UniProt entry, the sequences of proteins in these tests, tags left out. Residues count along the entry.
UniProt P21730: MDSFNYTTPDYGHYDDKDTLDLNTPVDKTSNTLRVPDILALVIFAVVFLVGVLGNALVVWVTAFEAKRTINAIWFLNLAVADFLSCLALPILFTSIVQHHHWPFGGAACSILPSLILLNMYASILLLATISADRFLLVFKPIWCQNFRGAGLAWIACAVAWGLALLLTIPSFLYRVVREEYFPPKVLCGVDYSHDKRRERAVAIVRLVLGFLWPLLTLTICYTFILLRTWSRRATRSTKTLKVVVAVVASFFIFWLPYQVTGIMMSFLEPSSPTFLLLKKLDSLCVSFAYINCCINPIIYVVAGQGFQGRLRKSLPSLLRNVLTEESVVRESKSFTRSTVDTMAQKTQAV
UniProt P01031, residues 678-751: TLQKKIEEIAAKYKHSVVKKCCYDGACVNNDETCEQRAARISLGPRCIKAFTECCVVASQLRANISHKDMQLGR

These are yes or no findings as the source states them, for the method shown. Some results given as binding are weak or reduced against the parent protein; the word gives no strength.

This is an account of results in PMC12586598, “A novel long-acting C5a-blocking cyclic peptide prevents sepsis-induced organ dysfunction via effective blockade of the inflammatory cascade” (Signal Transduction and Targeted Therapy, 2025).

“Cy5-labeled human C5a (from UniProt P01031 678-751) (ligand)”: the binding entry was “binds”.
